Data: patent publication US20230257458A1
No constants are given. Whether binding was seen depends on the method and setting. Some results given as binding are weak or reduced against the parent protein; the word gives no strength.

Sequences of proteins named here, by UniProt entry; tags and fusion partners are left off. Residues count along the entry.
UniProt P20809, residues 22-199: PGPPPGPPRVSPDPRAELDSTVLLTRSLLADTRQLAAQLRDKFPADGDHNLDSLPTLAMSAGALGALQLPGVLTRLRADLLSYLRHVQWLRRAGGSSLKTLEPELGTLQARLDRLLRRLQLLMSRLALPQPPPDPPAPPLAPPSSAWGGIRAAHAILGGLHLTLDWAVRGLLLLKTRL

Molecular target: recombinant IL-11 (LSBio, LS-G132887-10) (UniProt P20809)
Experiment: ELISA, cytokine coated

B1: 3-6A4 (antibody, human IgG1, kappa, V domains shown)
VH: QIQLVQSGPELKKPGETVKISCKASGYTFTTNGINWVKQAAGKGLKWMGWINTNTGEPTNAEELKGRFAFSLETSASTAYLQINNLKNEDAAIYFCAREGAFGLDYWGQGTSVTVSS
VL: SIVMTQSPKFLLVSAGDRVIITCKASQSVSNDVVWYQQKPGQSPKLLIYYGSHRNTGVPTRFTGSGYGTDFTFTISTVQAEDLAVYFCQQDFFSPWTFGGGTKLEIKR
binding: binds
